Results as given in paper PMC11845846.
These are yes or no findings as the source states them, for the method shown. In cells and extracts the contact can be indirect. Some results given as binding are weak or reduced against the parent protein; the word gives no strength.

Chains of the proteins cited; added tags and fusions are not shown. Residues count along the entry.
UniProt Q92673, residues 82-2214: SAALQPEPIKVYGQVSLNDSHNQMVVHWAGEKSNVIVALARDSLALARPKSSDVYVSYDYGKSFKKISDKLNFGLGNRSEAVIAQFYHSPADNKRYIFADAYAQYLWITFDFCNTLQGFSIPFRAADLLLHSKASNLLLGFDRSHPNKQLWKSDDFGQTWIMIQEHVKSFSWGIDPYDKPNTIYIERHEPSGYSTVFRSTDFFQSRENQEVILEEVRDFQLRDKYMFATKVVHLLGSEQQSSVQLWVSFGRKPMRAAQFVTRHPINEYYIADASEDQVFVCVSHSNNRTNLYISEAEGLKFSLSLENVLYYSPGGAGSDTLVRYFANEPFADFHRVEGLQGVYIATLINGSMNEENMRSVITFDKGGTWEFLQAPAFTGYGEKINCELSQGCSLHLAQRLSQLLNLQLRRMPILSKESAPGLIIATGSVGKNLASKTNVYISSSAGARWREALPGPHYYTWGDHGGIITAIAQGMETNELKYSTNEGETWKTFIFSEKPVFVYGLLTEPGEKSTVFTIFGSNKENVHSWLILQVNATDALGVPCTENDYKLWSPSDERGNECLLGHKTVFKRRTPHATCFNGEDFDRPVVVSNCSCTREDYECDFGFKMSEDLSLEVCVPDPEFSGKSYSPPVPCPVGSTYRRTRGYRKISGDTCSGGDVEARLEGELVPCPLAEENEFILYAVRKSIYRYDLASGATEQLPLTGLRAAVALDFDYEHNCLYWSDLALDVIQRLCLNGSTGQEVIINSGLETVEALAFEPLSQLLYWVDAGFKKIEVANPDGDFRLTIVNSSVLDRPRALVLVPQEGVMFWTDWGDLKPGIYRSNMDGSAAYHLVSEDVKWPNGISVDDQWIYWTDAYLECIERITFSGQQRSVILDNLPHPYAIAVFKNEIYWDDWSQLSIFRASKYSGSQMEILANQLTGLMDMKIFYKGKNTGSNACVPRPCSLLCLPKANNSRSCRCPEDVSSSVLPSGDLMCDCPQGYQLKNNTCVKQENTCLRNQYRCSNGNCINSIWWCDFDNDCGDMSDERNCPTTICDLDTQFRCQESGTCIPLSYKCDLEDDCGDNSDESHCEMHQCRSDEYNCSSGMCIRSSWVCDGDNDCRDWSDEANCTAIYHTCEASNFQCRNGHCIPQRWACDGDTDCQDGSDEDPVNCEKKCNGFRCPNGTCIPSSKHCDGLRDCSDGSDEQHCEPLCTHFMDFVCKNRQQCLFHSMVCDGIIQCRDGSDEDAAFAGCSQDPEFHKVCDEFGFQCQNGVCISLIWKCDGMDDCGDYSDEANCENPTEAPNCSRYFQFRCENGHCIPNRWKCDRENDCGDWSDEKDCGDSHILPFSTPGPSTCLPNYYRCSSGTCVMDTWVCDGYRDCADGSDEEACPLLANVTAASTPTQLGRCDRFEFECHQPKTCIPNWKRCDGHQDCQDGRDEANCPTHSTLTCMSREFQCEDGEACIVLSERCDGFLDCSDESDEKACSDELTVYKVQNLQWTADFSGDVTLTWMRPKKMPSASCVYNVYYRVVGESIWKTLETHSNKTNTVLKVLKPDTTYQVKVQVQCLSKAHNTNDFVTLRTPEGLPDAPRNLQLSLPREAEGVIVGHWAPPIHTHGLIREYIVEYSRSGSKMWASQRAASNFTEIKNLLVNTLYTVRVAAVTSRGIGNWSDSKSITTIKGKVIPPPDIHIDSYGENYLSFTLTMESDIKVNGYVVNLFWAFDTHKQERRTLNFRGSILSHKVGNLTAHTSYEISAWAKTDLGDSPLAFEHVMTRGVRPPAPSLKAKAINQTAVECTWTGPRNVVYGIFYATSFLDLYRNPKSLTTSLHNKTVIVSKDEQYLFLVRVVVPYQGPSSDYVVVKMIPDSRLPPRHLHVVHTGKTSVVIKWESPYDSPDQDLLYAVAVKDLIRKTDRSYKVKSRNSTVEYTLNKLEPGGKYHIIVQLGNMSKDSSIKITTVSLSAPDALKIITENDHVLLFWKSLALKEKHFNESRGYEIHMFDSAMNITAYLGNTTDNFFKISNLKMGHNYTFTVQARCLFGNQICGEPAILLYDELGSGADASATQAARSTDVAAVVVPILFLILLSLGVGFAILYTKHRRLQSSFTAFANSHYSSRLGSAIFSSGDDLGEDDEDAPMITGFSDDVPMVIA
UniProt P04406: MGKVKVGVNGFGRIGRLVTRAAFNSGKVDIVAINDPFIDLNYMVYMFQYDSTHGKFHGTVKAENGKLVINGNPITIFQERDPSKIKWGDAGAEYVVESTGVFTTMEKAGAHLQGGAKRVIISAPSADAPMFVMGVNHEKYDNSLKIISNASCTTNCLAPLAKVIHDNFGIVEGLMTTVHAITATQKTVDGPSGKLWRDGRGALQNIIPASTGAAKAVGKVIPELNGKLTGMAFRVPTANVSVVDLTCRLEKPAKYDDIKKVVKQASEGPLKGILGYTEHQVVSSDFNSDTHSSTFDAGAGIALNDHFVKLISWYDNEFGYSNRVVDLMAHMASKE

T1: CD14 (UniProt P08571)
T1 sequence: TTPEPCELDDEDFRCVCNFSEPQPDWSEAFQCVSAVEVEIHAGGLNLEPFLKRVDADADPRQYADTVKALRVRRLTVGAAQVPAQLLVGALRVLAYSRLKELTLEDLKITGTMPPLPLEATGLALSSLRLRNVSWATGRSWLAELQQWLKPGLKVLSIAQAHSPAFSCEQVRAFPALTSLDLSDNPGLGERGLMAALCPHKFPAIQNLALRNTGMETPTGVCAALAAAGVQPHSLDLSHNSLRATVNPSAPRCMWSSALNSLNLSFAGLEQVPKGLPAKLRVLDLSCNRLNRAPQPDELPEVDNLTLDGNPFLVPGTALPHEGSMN

B1: CD14 (receptor, UniProt P08571 20-345)
chain: T1 sequence

What was measured:
[1] = biological target: T1, CD14; test: co-IP; transfected HEK293 cells; immunoprecipitation of CD14 or of SORLA from co-transfected cells, with singly transfected cells as controls; the other protein detected on blots
[2] = biological target: Sorting protein‐related receptor containing class A repeats (SORLA) (UniProt Q92673); test: as above

Molecule	binding [1]	binding [2]
GAPDH (from UniProt P04406 1-335)	no binding	no binding
Sorting protein‐related receptor containing class A repeats (SORLA) (from UniProt Q92673 82-2214)	binds	–
B1	–	binds
